{"source": "patent US6723858B2", "about": "“Estrogenic compounds as anti-mitotic agents” (The Children's Medical Center Corporation, priority 1993, dated 2004)", "test_system": "tubulin", "experiment": "inhibition of [3H]colchicine binding to tubulin", "details": "100 μM inhibitor, 1.0 μM tubulin, 2 μM [3H]colchicine, 5% DMSO, 10 min at 37° C.", "data": [{"smiles": "CC/C(=C(/CC)c1ccc(O)cc1)c1ccc(O)cc1", "note": "[Diethylstilbestrol, reference compound]", "values": [{"measurement": "Percent inhibition ± S.D. of colchicine binding to tubulin", "result": "30 ± 4", "unit": "%"}]}]}
